Results are given in words; binding and its absence hold for the method and conditions named. Binding seen in cells or lysates may run through a third protein. A yes stands for co-enrichment or nearness to the bait. Other partners may have been found. Tags and fused reporters may be left off the sequences shown.
Target: T1, Flag-FATS (fragile site-associated tumor suppressor) (UniProt Q96M02)
T1 sequence: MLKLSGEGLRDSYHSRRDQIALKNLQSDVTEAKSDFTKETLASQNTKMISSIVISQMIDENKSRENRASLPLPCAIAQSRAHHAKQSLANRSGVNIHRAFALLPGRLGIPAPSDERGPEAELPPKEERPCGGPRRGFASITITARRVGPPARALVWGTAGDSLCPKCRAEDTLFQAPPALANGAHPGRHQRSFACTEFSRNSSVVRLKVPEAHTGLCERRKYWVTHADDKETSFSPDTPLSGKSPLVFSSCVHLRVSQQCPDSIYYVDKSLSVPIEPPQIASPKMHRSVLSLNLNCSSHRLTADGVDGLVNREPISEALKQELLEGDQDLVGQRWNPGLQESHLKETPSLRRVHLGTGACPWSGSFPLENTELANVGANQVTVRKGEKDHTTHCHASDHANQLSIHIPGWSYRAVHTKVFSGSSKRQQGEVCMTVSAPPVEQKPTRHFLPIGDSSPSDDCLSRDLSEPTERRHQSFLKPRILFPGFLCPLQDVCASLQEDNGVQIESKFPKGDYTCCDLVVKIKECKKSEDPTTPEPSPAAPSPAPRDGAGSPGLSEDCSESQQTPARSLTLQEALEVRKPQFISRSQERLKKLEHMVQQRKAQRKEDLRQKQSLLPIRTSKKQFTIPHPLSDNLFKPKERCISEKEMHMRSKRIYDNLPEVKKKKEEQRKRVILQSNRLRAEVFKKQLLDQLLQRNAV
Experiment: affinity purification with mass spectrometry; MCF-7 cells transfected with Flag-FATS or an empty plasmid; co-immunoprecipitation, silver staining, mass spectrometry of the co-immunoprecipitated proteins

Protein sequences, listed by entry. Tags and fused reporters are not part of them.
UniProt P35579: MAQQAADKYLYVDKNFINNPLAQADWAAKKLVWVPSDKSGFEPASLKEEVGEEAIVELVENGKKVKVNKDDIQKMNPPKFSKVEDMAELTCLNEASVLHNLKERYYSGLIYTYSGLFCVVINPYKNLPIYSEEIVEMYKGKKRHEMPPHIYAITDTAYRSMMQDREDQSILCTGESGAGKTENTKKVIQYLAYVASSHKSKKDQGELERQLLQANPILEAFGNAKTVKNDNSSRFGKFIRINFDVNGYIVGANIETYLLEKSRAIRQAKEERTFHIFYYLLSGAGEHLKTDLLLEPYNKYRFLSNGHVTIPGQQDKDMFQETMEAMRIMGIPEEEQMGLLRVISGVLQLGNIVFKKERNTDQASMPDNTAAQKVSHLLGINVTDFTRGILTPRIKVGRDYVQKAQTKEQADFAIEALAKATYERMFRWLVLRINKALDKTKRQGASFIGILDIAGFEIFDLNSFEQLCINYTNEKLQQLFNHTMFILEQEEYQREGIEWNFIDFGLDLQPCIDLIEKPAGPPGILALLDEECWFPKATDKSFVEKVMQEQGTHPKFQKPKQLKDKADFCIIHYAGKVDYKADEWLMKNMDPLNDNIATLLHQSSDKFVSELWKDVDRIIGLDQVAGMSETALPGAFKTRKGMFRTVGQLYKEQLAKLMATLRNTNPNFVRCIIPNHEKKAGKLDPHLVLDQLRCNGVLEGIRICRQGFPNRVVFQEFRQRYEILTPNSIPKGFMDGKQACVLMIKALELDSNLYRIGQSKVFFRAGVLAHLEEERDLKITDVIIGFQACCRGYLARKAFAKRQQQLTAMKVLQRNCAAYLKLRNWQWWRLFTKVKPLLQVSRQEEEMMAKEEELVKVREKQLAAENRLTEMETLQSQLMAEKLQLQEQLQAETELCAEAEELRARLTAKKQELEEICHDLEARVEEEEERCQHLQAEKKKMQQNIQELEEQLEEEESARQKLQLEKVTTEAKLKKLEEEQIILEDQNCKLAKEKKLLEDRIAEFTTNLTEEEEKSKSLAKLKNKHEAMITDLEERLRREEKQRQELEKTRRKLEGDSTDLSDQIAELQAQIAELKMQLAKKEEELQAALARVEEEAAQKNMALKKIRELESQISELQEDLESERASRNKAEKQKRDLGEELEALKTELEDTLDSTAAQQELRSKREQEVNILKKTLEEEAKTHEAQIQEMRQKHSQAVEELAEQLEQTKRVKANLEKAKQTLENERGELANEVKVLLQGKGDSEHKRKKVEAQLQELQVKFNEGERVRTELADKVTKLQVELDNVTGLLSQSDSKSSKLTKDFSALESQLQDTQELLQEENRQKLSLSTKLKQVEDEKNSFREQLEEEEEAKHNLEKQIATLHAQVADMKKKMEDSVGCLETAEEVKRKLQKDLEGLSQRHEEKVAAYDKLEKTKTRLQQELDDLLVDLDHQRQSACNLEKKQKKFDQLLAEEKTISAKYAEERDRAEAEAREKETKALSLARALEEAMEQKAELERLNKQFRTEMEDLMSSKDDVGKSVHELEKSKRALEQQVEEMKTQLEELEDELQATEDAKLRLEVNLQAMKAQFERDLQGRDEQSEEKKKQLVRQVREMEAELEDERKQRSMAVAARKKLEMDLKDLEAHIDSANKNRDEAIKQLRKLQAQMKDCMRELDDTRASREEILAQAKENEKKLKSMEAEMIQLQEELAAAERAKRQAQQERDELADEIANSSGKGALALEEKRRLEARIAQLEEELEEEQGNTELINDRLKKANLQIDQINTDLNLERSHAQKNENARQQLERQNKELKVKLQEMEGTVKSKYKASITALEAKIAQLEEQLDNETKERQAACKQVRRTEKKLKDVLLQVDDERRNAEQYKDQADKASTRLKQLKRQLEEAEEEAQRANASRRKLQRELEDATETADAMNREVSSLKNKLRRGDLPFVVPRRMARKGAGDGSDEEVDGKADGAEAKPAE

With “myosin heavy chain 9 (MYH9) (from UniProt P35579 1-1960)” the binding was “binds”.

From paper PMC11569202
